# Results: US20100152434A1, “Protein Kinase-binding Nucleosides and Associated Methods” (priority 2007, published 2010)
# Read-outs that look alike come from different tables or passages of the source.
smiles,measurement,setting,value
"CNC(=O)NC[C@H]1O[C@@H](n2cnc3c(NC(=O)Nc4ccccc4)ncnc32)[C@H](O[Si](C)(C)C(C)(C)C)[C@@H]1CC(=O)N(C)OC [Compound 13, 2′-O-(tert-Butyldimethylsilyl)-3′,5′-dideoxy-3′-[(N-methoxy-N-methylcarboxamido)methyl]-5′-[(N-methylcarbamoyl)amino]-N^6-(N-phenylcarbamoyl)adenosine]",Mean Optical Densities,SF-295; Log10 Concentration −4.0,1.105
same,Mean Optical Densities,SF-295; Log10 Concentration −5.0,1.632
same,Mean Optical Densities,SF-295; Log10 Concentration −6.0,2.575
same,Mean Optical Densities,SF-295; Log10 Concentration −7.0,2.476
same,Mean Optical Densities,SF-295; Log10 Concentration −8.0,2.480
same,Mean Optical Densities,U251; Log10 Concentration −4.0,0.492
same,Mean Optical Densities,U251; Log10 Concentration −5.0,0.619
same,Mean Optical Densities,U251; Log10 Concentration −6.0,1.177
same,Mean Optical Densities,U251; Log10 Concentration −7.0,1.293
same,Mean Optical Densities,U251; Log10 Concentration −8.0,1.255
same,Mean Optical Densities,IGROV1; Log10 Concentration −4.0,0.389
same,Mean Optical Densities,IGROV1; Log10 Concentration −5.0,0.604
same,Mean Optical Densities,IGROV1; Log10 Concentration −6.0,1.031
same,Mean Optical Densities,IGROV1; Log10 Concentration −7.0,1.081
same,Mean Optical Densities,IGROV1; Log10 Concentration −8.0,1.077
same,Mean Optical Densities,HCT-15; Log10 Concentration −4.0,0.875
same,Mean Optical Densities,HCT-15; Log10 Concentration −5.0,0.927
same,Mean Optical Densities,HCT-15; Log10 Concentration −6.0,1.812
same,Mean Optical Densities,HCT-15; Log10 Concentration −7.0,1.827
same,Mean Optical Densities,HCT-15; Log10 Concentration −8.0,1.868
same,Mean Optical Densities,NCI/ADR-RES; Log10 Concentration −4.0,1.139
same,Mean Optical Densities,NCI/ADR-RES; Log10 Concentration −5.0,1.361
same,Mean Optical Densities,NCI/ADR-RES; Log10 Concentration −6.0,1.675
same,Mean Optical Densities,NCI/ADR-RES; Log10 Concentration −7.0,1.717
same,Mean Optical Densities,NCI/ADR-RES; Log10 Concentration −8.0,1.717
same,Mean Optical Densities,LOX IMVI; Log10 Concentration −4.0,1.146
same,Mean Optical Densities,LOX IMVI; Log10 Concentration −5.0,1.324
same,Mean Optical Densities,LOX IMVI; Log10 Concentration −6.0,2.415
same,Mean Optical Densities,LOX IMVI; Log10 Concentration −7.0,2.473
same,Mean Optical Densities,LOX IMVI; Log10 Concentration −8.0,2.486
same,Mean Optical Densities,UACC-62; Log10 Concentration −4.0,1.418
same,Mean Optical Densities,UACC-62; Log10 Concentration −5.0,1.969
same,Mean Optical Densities,UACC-62; Log10 Concentration −6.0,2.473
same,Mean Optical Densities,UACC-62; Log10 Concentration −7.0,2.666
same,Mean Optical Densities,UACC-62; Log10 Concentration −8.0,2.580
same,Mean Optical Densities,M14; Log10 Concentration −4.0,0.647
same,Mean Optical Densities,M14; Log10 Concentration −5.0,1.026
same,Mean Optical Densities,M14; Log10 Concentration −6.0,1.352
same,Mean Optical Densities,M14; Log10 Concentration −7.0,1.418
same,Mean Optical Densities,M14; Log10 Concentration −8.0,1.422
same,Mean Optical Densities,OVCAR-4; Log10 Concentration −4.0,0.792
same,Mean Optical Densities,OVCAR-4; Log10 Concentration −5.0,0.917
same,Mean Optical Densities,OVCAR-4; Log10 Concentration −6.0,1.258
same,Mean Optical Densities,OVCAR-4; Log10 Concentration −7.0,1.288
same,Mean Optical Densities,OVCAR-4; Log10 Concentration −8.0,1.296
same,Mean Optical Densities,MDA-MB-231/ATCC; Log10 Concentration −4.0,0.417
same,Mean Optical Densities,MDA-MB-231/ATCC; Log10 Concentration −5.0,0.704
same,Mean Optical Densities,MDA-MB-231/ATCC; Log10 Concentration −6.0,0.933
same,Mean Optical Densities,MDA-MB-231/ATCC; Log10 Concentration −7.0,0.990
same,Mean Optical Densities,MDA-MB-231/ATCC; Log10 Concentration −8.0,0.947
same,Mean Optical Densities,SK-MEL-5; Log10 Concentration −4.0,0.674
same,Mean Optical Densities,SK-MEL-5; Log10 Concentration −5.0,0.973
same,Mean Optical Densities,SK-MEL-5; Log10 Concentration −6.0,1.522
same,Mean Optical Densities,SK-MEL-5; Log10 Concentration −7.0,1.622
same,Mean Optical Densities,SK-MEL-5; Log10 Concentration −8.0,1.690
same,Mean Optical Densities,RPMI-8226; Log10 Concentration −4.0,0.890
same,Mean Optical Densities,RPMI-8226; Log10 Concentration −5.0,0.794
same,Mean Optical Densities,RPMI-8226; Log10 Concentration −6.0,1.785
same,Mean Optical Densities,RPMI-8226; Log10 Concentration −7.0,2.027
same,Mean Optical Densities,RPMI-8226; Log10 Concentration −8.0,1.911
same,Mean Optical Densities,CAKI-1; Log10 Concentration −4.0,0.864
same,Mean Optical Densities,CAKI-1; Log10 Concentration −5.0,0.897
same,Mean Optical Densities,CAKI-1; Log10 Concentration −6.0,0.964
same,Mean Optical Densities,CAKI-1; Log10 Concentration −7.0,0.949
same,Mean Optical Densities,CAKI-1; Log10 Concentration −8.0,0.993
same,Mean Optical Densities,RXF 393; Log10 Concentration −4.0,0.448
same,Mean Optical Densities,RXF 393; Log10 Concentration −5.0,0.942
same,Mean Optical Densities,RXF 393; Log10 Concentration −6.0,1.182
same,Mean Optical Densities,RXF 393; Log10 Concentration −7.0,1.194
same,Mean Optical Densities,RXF 393; Log10 Concentration −8.0,1.209
same,Mean Optical Densities,SK-MEL-2; Log10 Concentration −4.0,0.361
same,Mean Optical Densities,SK-MEL-2; Log10 Concentration −5.0,0.594
same,Mean Optical Densities,SK-MEL-2; Log10 Concentration −6.0,0.699
same,Mean Optical Densities,SK-MEL-2; Log10 Concentration −7.0,0.669
same,Mean Optical Densities,SK-MEL-2; Log10 Concentration −8.0,0.675
same,Mean Optical Densities,NCI-H460; Log10 Concentration −4.0,0.669
same,Mean Optical Densities,NCI-H460; Log10 Concentration −5.0,0.966
same,Mean Optical Densities,NCI-H460; Log10 Concentration −6.0,1.674
same,Mean Optical Densities,NCI-H460; Log10 Concentration −7.0,1.726
same,Mean Optical Densities,NCI-H460; Log10 Concentration −8.0,1.776
same,Mean Optical Densities,SK-OV-3; Log10 Concentration −4.0,0.648
same,Mean Optical Densities,SK-OV-3; Log10 Concentration −5.0,0.905
same,Mean Optical Densities,SK-OV-3; Log10 Concentration −6.0,0.984
same,Mean Optical Densities,SK-OV-3; Log10 Concentration −7.0,0.995
same,Mean Optical Densities,SK-OV-3; Log10 Concentration −8.0,0.989
